Measured values: publication doi:10.1101/2020.11.16.385765
No constants are given. Whether binding was seen depends on the method and setting. Binding seen in cells or lysates may run through a third protein. Some entries that bind do so weakly or less than the wild type. Tags and fused reporters may be left off the sequences shown.

Molecular target: T1, hemagglutinin (HA)-tagged SMYD5 (SET and MYND domain-containing protein 5) (UniProt Q6GMV2)
T1 sequence: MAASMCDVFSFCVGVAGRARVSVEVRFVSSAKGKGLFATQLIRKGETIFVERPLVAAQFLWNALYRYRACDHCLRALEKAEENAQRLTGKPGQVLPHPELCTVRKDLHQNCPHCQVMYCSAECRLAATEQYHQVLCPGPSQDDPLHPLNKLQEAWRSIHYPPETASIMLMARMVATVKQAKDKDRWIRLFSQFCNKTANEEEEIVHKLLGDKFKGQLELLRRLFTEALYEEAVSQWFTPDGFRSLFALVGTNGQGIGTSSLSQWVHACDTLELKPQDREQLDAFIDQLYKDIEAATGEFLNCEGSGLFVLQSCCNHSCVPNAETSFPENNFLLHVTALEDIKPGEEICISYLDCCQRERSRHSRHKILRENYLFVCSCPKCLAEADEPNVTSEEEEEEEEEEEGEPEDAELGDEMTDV
Assay: co-IP

B1: Flag-tagged PGC-1α (peroxisome proliferator-activated receptor gamma coactivator 1 alpha) (protein, UniProt O70343 1-797)
chain: MAWDMCSQDSVWSDIECAALVGEDQPLCPDLPELDLSELDVNDLDTDSFLGGLKWCSDQSEIISNQYNNEPANIFEKIDEENEANLLAVLTETLDSLPVDEDGLPSFDALTDGAVTTDNEASPSSMPDGTPPPQEAEEPSLLKKLLLAPANTQLSYNECSGLSTQNHAANHTHRIRTNPAIVKTENSWSNKAKSICQQQKPQRRPCSELLKYLTTNDDPPHTKPTENRNSSRDKCASKKKSHTQPQSQHAQAKPTTLSLPLTPESPNDPKGSPFENKTIERTLSVELSGTAGLTPPTTPPHKANQDNPFKASPKLKPSCKTVVPPPTKRARYSECSGTQGSHSTKKGPEQSELYAQLSKSSGLSRGHEERKTKRPSLRLFGDHDYCQSLNSKTDILINISQELQDSRQLDFKDASCDWQGHICSSTDSGQCYLRETLEASKQVSPCSTRKQLQDQEIRAELNKHFGHPCQAVFDDKSDKTSELRDGDFSNEQFSKLPVFINSGLAMDGLFDDSEDESDKLSYPWDGTQPYSLFDVSPSCSSFNSPCRDSVSPPKSLFSQRPQRMRSRSRSFSRHRSCSRSPYSRSRSRSPGSRSSSRSCYYYESSHYRHRTHRNSPLYVRSRSRSPYSRRPRYDSYEAYEHERLKRDEYRKEHEKRESERAKQRERQKQKAIEERRVIYVGKIRPDTTRTELRDRFEVFGEIEECTVNLRDDGDSYGFITYRYTCDAFAALENGYTLRRSNETDFELYFCGRKQFFKSNYADLDTNSDDFDPASTKSKYDSLDFDSLLKEAQRSLRR
For B1, the binding was “binds”.
